PubChem BioAssay AID1259299 | Sanger Institute | 2017
Aim: 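Kinases and colorectal mutated genes needed by colorectal cancer cells, with or without drugs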 (primary screen). Cells: human CAR1 colorectal cancer cells. Knock-down reagent: siRNA pool against human genes. Conditions: anchor drug BYL719 1 µM, cetuximab 5 µg/ml or trametinib 10 nM, or DMSO vehicle alone; exposure length not given. Measured: 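Cell viability as fraction of non-targeting siRNA wells, mean of replicates, with robust z-score and a synergy score for each of three drugs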. Scale: viability robust z-score, knock-down alone and viability, knock-down alone (DMSO): higher = more viable cells. Hit rule: 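Essential when viability robust z-score with knock-down alone (DMSO) is below -3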. Calls: active = essential (knock-down alone); inactive = no change.
The deposit covers 794 reagents; below is a random part of them. 9 of them (1.1%) count as active. 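Calls rest on knock-down alone; synergy scores play no part in calls, and no gene passed the synergy cut.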 Entries without a mark were called inactive. Reagents against one gene are numbered here. No viability above 1 is reported: the scale is capped. Further read-outs or replicates are left out here. Reagent sequences are not shown. Not stated in the record: the amount of reagent, the time to read-out.

Knock-down of MOK gave: viability robust z-score, knock-down alone 0.789; viability, knock-down alone (DMSO) (fraction of control) = 1.
Knock-down of MAPK12 came out at: viability robust z-score, knock-down alone 0.789; viability, knock-down alone (DMSO) (fraction of control) = 1.
Against WNK2, the values are viability robust z-score, knock-down alone 0.789; viability, knock-down alone (DMSO) (fraction of control) = 1.
With knock-down of STK17A, the screen gave viability robust z-score, knock-down alone -0.19; viability, knock-down alone (DMSO) (fraction of control) = 0.91.
Depletion of EFNA3 resulted in: viability robust z-score, knock-down alone 0.789; viability, knock-down alone (DMSO) (fraction of control) = 1.
After knock-down of ERN1, the screen gave viability robust z-score, knock-down alone -0.325; viability, knock-down alone (DMSO) (fraction of control) = 0.897.
Silencing of MAP3K3 gave: viability robust z-score, knock-down alone 0.174; viability, knock-down alone (DMSO) (fraction of control) = 0.943.
For ILK #1, the entry reads viability robust z-score, knock-down alone 0.153; viability, knock-down alone (DMSO) (fraction of control) = 0.941.
Against ILK #2, the entry reads viability robust z-score, knock-down alone 0.779; viability, knock-down alone (DMSO) (fraction of control) = 0.999.
For PIP5K1B the deposit lists viability robust z-score, knock-down alone 0.789; viability, knock-down alone (DMSO) (fraction of control) = 1.
After knock-down of LRRK2, the record shows viability robust z-score, knock-down alone 0.546; viability, knock-down alone (DMSO) (fraction of control) = 0.978.
Depletion of GUCY2F gave: viability robust z-score, knock-down alone 0.12; viability, knock-down alone (DMSO) (fraction of control) = 0.938.
After knock-down of MARK1 the results were viability robust z-score, knock-down alone 0.789; viability, knock-down alone (DMSO) (fraction of control) = 1.
For DMPK, the values are viability robust z-score, knock-down alone -1.66; viability, knock-down alone (DMSO) (fraction of control) = 0.774.
Against RPS6KA2, the entry reads viability robust z-score, knock-down alone -2.65; viability, knock-down alone (DMSO) (fraction of control) = 0.682.

Ordered by “viability, knock-down alone (DMSO) (fraction of control)” (lowest first): 4 of the entries above
ERN1 — viability robust z-score, knock-down alone = -0.325; viability, knock-down alone (DMSO) (fraction of control) = 0.897
STK17A — viability robust z-score, knock-down alone = -0.19; viability, knock-down alone (DMSO) (fraction of control) = 0.91
WNK2 — viability robust z-score, knock-down alone = 0.789; viability, knock-down alone (DMSO) (fraction of control) = 1
EFNA3 — viability robust z-score, knock-down alone = 0.789; viability, knock-down alone (DMSO) (fraction of control) = 1

The listing continues:
Against IKBKB the deposit lists viability robust z-score, knock-down alone -0.399; viability, knock-down alone (DMSO) (fraction of control) = 0.89.
After knock-down of STK32B, the screen gave viability robust z-score, knock-down alone 0.789; viability, knock-down alone (DMSO) (fraction of control) = 1.
Knock-down of BRSK2 gave: viability robust z-score, knock-down alone 0.789; viability, knock-down alone (DMSO) (fraction of control) = 1.
With knock-down of BMAL1, the record shows viability robust z-score, knock-down alone -0.973; viability, knock-down alone (DMSO) (fraction of control) = 0.837.
Against CDKL5 the deposit lists viability robust z-score, knock-down alone 0.662; viability, knock-down alone (DMSO) (fraction of control) = 0.988.
PCK1 showed viability robust z-score, knock-down alone 0.789; viability, knock-down alone (DMSO) (fraction of control) = 1.
After knock-down of GUCY2D, the screen gave viability robust z-score, knock-down alone -5.83 (active); viability, knock-down alone (DMSO) (fraction of control) = 0.389.
Knock-down of PIP4K2C came out at: viability robust z-score, knock-down alone 0.789; viability, knock-down alone (DMSO) (fraction of control) = 1.
After knock-down of EPHA6, the record shows viability robust z-score, knock-down alone -1.37; viability, knock-down alone (DMSO) (fraction of control) = 0.8.
Against MGA, the values are viability robust z-score, knock-down alone -0.208; viability, knock-down alone (DMSO) (fraction of control) = 0.908.
With knock-down of PRKAR1A, the screen gave viability robust z-score, knock-down alone -0.257; viability, knock-down alone (DMSO) (fraction of control) = 0.903.
Depletion of MAP3K14 resulted in: viability robust z-score, knock-down alone 0.53; viability, knock-down alone (DMSO) (fraction of control) = 0.976.
KRAS showed viability robust z-score, knock-down alone -0.666; viability, knock-down alone (DMSO) (fraction of control) = 0.866.
